# Data: article PMC12235508
# Amino acid sequences for entries named in this document (tags omitted). A change or cut given only in a name is not applied to a line headed by its entry.
# UniProt Q12888: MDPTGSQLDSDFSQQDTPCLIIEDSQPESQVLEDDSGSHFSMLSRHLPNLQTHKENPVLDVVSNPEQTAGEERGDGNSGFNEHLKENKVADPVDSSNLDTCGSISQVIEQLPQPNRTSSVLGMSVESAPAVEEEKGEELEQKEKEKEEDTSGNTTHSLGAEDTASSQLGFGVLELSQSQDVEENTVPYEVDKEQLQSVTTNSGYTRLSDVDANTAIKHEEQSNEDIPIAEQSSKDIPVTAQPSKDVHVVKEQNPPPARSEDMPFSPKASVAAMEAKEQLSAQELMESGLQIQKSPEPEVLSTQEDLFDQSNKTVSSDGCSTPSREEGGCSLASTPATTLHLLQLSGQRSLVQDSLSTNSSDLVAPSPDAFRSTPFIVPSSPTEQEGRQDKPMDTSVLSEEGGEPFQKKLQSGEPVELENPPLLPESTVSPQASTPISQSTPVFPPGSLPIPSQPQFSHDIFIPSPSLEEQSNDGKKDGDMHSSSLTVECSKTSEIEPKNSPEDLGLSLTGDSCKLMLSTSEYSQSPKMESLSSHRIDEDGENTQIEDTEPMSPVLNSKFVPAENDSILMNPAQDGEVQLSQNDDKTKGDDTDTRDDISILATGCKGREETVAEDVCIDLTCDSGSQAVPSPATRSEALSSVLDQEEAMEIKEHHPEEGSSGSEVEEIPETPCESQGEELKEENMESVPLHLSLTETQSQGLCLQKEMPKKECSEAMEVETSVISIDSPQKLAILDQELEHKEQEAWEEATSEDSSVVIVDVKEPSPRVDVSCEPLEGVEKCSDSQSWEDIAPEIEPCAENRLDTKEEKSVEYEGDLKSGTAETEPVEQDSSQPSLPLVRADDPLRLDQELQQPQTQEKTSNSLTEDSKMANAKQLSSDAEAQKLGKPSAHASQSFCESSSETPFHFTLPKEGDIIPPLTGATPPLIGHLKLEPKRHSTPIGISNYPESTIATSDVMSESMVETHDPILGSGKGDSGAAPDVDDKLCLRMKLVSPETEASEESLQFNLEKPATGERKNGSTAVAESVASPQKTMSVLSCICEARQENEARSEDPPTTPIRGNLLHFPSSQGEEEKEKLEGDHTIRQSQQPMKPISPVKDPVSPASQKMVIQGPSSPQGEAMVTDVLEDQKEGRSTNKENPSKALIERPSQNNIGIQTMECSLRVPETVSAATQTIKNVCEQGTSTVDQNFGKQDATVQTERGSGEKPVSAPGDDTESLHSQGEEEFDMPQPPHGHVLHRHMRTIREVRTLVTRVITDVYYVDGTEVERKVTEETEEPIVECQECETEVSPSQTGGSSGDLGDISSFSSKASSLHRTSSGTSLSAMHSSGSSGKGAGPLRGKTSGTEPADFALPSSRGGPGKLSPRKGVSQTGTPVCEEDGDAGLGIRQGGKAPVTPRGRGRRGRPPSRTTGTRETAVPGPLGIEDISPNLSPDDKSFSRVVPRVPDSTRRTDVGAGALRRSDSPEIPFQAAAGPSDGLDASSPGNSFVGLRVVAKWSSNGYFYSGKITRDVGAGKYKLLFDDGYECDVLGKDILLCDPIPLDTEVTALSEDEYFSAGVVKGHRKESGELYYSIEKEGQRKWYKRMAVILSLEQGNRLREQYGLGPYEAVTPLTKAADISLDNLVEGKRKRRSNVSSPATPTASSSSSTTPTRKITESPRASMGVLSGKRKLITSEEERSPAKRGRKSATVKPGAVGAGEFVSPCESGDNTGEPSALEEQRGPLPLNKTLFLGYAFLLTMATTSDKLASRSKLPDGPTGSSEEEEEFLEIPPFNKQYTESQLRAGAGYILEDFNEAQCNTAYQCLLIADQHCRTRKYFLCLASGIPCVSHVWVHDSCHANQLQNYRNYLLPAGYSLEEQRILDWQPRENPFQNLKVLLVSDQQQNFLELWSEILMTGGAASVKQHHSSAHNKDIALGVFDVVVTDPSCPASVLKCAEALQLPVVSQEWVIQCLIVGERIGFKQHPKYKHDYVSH
# UniProt Q00987: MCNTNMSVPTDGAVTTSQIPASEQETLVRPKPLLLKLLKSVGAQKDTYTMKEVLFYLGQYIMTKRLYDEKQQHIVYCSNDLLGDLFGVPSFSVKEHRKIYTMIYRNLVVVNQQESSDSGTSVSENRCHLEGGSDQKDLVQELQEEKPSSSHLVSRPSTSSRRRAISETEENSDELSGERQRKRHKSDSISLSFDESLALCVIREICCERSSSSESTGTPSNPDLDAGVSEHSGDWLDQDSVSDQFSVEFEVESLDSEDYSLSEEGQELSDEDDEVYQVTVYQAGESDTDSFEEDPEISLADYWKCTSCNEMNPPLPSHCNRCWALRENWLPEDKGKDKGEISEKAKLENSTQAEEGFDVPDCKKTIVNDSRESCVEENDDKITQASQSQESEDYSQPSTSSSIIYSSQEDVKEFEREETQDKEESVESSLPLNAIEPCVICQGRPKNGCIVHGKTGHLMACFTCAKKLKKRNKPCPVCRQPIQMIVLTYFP
# UniProt Q14676: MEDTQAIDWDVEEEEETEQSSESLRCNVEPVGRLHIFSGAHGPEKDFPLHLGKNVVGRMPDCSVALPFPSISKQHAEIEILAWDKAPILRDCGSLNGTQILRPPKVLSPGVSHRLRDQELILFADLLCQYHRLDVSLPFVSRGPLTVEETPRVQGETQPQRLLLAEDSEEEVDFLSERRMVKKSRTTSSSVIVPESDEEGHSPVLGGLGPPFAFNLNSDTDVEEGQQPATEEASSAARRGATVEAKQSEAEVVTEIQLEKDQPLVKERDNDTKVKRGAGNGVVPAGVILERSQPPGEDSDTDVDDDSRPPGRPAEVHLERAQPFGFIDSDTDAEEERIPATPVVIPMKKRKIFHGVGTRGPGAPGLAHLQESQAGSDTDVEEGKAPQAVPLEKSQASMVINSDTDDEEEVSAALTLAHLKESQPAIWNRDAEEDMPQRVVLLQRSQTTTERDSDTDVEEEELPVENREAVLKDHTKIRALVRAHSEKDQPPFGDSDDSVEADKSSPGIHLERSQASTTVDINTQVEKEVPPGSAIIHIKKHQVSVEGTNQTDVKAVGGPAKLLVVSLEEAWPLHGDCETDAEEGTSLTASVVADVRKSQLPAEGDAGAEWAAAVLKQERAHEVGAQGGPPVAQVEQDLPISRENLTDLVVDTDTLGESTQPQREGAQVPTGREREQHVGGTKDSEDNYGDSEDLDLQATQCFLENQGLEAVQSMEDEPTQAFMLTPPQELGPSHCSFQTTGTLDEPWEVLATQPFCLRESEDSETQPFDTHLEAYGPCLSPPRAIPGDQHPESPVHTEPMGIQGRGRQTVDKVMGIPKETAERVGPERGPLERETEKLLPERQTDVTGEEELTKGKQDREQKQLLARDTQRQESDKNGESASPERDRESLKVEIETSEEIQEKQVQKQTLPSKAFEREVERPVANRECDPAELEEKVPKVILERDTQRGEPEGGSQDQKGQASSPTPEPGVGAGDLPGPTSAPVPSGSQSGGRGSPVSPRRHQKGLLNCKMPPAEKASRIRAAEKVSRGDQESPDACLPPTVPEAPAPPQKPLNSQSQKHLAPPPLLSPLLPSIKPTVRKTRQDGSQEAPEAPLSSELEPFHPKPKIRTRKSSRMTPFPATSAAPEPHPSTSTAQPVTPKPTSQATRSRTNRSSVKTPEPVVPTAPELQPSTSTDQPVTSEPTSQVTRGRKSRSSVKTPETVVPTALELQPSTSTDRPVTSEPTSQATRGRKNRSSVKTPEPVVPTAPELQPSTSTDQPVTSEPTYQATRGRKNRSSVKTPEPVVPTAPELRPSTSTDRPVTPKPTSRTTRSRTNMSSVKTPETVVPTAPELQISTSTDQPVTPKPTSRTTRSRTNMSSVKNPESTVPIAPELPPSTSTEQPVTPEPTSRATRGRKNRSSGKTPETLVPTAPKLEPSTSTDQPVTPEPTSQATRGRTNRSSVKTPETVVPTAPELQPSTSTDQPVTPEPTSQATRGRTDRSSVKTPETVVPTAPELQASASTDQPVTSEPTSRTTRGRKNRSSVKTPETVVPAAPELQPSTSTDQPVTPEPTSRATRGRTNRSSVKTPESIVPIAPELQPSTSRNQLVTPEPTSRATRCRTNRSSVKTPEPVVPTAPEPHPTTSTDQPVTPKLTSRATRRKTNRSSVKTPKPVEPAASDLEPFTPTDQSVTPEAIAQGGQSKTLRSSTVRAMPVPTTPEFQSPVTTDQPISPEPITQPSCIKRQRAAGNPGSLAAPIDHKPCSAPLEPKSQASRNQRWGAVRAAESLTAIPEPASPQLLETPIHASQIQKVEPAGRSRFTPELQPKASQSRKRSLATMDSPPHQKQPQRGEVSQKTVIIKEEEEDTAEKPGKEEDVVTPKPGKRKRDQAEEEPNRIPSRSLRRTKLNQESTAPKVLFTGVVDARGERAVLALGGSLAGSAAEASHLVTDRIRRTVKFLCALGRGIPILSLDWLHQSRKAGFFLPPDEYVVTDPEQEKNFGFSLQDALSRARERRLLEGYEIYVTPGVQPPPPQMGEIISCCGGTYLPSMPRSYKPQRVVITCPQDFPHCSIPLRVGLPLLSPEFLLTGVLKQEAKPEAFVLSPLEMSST
# Results are given in words; binding and its absence hold for the method and conditions named. In cells and extracts the contact can be indirect. Some entries that bind do so weakly or less than the wild type.
# Columns and labels:
# [1] = molecular target: p53 binding protein 1 (53BP1) (human (endogenous in T47D, MDA-MB-231, MDA-MB-468)) (UniProt Q12888); assay: co-IP; 53BP1 precipitated with goat anti-53BP1 (PLA0303) on Protein G Mag Sepharose from T47D chromatin extract soluble made with benzonase and cathepsin L inhibitor, 4 h at 4°C; blot for 53BP1, MDC1, MDM2 and p53; IgG as control
# [2] = molecular target: p53 binding protein 1 (53BP1) (human (endogenous in T47D, MDA-MB-231, MDA-MB-468)) (UniProt Q12888); assay: proximity ligation; Duolink PLA on fixed, permeabilised T47D and MDA-MB-231 cells (vector control, shmdm2 and shmdmx derivatives); goat anti-53BP1, rabbit anti-p53, rabbit anti-MDC1, mouse anti-MDM2 4B2; foci per nucleus by confocal microscopy; also after 10 uM Nutlin 3a 24 h, 50 uM etoposide 2 h and 5 h, 10 uM ALRN-6924, 10 uM KU-55933 (ATMi), EdU labelling
# [3] = molecular target: p53 binding protein 1 (53BP1) (human (endogenous in T47D, MDA-MB-231, MDA-MB-468)) (UniProt Q12888); assay: proximity ligation; 53BP1–MDC1 PLA on T47D cell populations pre-extracted with cytoskeletal buffer (CSK) before fixation (Supplementary Fig. S3)
binding [1],binding [2],binding [3],Substance
binds,binds,–,MDM2 (from UniProt Q00987 1-491)
binds,–,binds,mediator of dna damage checkpoint 1 (MDC1) (from UniProt Q14676 1-2089)
